Results taken from paper PMC3479092, “Tsetse Salivary Gland Proteins 1 and 2 Are High Affinity Nucleic Acid Binding Proteins with Residual Nuclease Activity”.
These are yes or no findings as the source states them, for the method shown.

Biological target: tsetse salivary gland protein 1 (native, in tsetse fly saliva) (Glossina morsitans morsitans (endogenous in saliva)) (UniProt D3TS87)
Test: SEC; total saliva on Superdex 200; fractions analysed by silver-stained SDS-PAGE and by western blot with rabbit anti-Tsal1&2 polyclonal IgGs

B1: tsetse salivary gland protein 1 (native, in tsetse fly saliva) (protein, UniProt D3TS87 23-399)
chain: DCSLKIPESVENEKTPVIMVRKSLKTFEYDLFQPTGEVTNFPERTELLLACTGAQNYFKNGEESVTLMCHNNEFDDGQGNGLDLFTCVKTPTAELRKTKERCSLGDLYVYDVVFRISEEELVGPVYDICYNEYSQKPAYSRNIINGAAVNYRVPESETDLTVSLAKDFTTRDVNNYFKLENQKQRFQGYTIDGKPLVDDKNFFAPGQLAPDTSMITPADKLSTYDYANIVPQYKTVYDGNVWRVENITRDLAVNRQAKFEVYTGGYERLTALHNGKEEEIFLSAKKYVHEIPKYIYKFVVDKENDAGIVFFTLNNPHVKNVKGTEFCKNQCEEANVLDSNFKDWTQGYTFCCTWNNVKDYVRALPQDIEINNLLKFN
binding: no binding
